# PubChem BioAssay AID1508587, Peter MacCallum Cancer Centre | 2020
# Assay: 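Retest of knockdowns boosting BRAF inhibitor action on lactate release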 (follow-up of hits)
# Cells: human WM266.4 melanoma cells with a BRAF V600 mutation
# Reagent: single siRNA against human genes, 25 nM
# Timing: 96 h
# Conditions: vemurafenib 300 nM (about IC25), given 48 h after transfection for 48 h
# Measurement: 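Per-cell lactate from absorbance divided by DAPI nucleus counts, compared with and without vemurafenib, relative to non-targeting siRNA, mean of 2 replicates; nuclear counts also give cell number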
# Scale: lactate per cell, drug vs no drug: higher = less drug-induced drop in lactate per cell; lactate per cell with vemurafenib: higher = more lactate per cell under drug; lactate per cell without drug: higher = more lactate per cell without drug; cell growth with vemurafenib and cell growth without drug: higher = more cell growth over 48 h
# Call rule: 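a duplex is active when its lactate-per-cell ratio with versus without drug falls under 0.55, i.e. 2 SD below non-targeting; a gene is confirmed if 2 or more of 4 duplexes pass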
# This is an unselected part of about 1,600 reagents tested. 623 of them (39%) count as active. 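Calls are for each duplex; lactate ratios contain extreme outliers.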 Unmarked entries are inactive. Reagents against one gene are numbered here. Reagent sequences are not shown.
Gene,reagent,"lactate per cell, drug vs no drug",lactate per cell with vemurafenib,lactate per cell without drug,cell growth with vemurafenib,cell growth without drug
NUP37 (GeneID 79023),1,0.58,0.66,0.74,0.26,0.38
NUP37 (GeneID 79023),2,0.64,1.04,1.04,0.56,0.73
NUP37 (GeneID 79023),3,0.6,0.97,1.04,0.89,0.83
NUP37 (GeneID 79023),4,0.6,0.86,0.93,1.16,1.13
MOB3B (GeneID 79817),1,0.93,2.76,2.04,0.16,0.22
MOB3B (GeneID 79817),2,0.6,0.5,0.56,0.18,0.33
MOB3B (GeneID 79817),3,0.5 (active),1.62,2.23,0.13,0.07
MOB3B (GeneID 79817),4,1.08,5.85,3.68,-0.1,-0.05
IGFALS (GeneID 3483),1,0.56,0.74,0.88,0.46,0.72
IGFALS (GeneID 3483),2,0.75,2.03,1.83,0.56,0.29
IGFALS (GeneID 3483),3,0.41 (active),0.49,0.82,0.03,0.13
IGFALS (GeneID 3483),4,0.79,1.16,1,0.27,0.17
TBC1D5 (GeneID 9779),1,0.18 (active),0.23,0.86,0.22,0.28
TBC1D5 (GeneID 9779),2,0.78,1.73,1.54,-0.04,-0.04
TBC1D5 (GeneID 9779),3,0.74,1.15,1.04,0.99,0.99
TBC1D5 (GeneID 9779),4,0.68,3.06,3.07,0.2,0.06
AKAP12 (GeneID 9590),1,0.64,1.47,1.57,0.08,0.23
AKAP12 (GeneID 9590),2,0.53 (active),1.1,1.37,0.58,0.49
AKAP12 (GeneID 9590),3,0.55,1.07,1.27,0.64,0.68
AKAP12 (GeneID 9590),4,0.54 (active),0.76,0.91,0.13,0.28
CIRSR (GeneID 9541),1,0.77,3.07,2.72,0.11,0.12
CIRSR (GeneID 9541),2,0.9,8.7,7.11,-0.09,-0.12
CIRSR (GeneID 9541),3,0.57,1.35,1.6,0.17,0.22
CIRSR (GeneID 9541),4,0.6,0.92,1.04,0.88,0.9
RHNO1 (GeneID 83695),1,0.7,1.4,1.36,0.25,0.33
RHNO1 (GeneID 83695),2,0.95,1.4,1,0.69,1.02
RHNO1 (GeneID 83695),3,0.05 (active),0.07,1.2,-0.06,0.05
RHNO1 (GeneID 83695),4,0.57,0.88,1.06,0.71,0.74
RCOR3 (GeneID 55758),1,0.42 (active),5.27,8.04,-0.03,-0.1
RCOR3 (GeneID 55758),2,0.47 (active),0.68,0.94,0.83,0.79
RCOR3 (GeneID 55758),3,0.6,0.88,0.9,0.41,0.43
RCOR3 (GeneID 55758),4,0.82,1.75,1.34,0.28,0.57
SERINC5 (GeneID 256987),1,0.35 (active),1.21,2.44,0.12,-0.07
SERINC5 (GeneID 256987),2,0.52 (active),0.94,1.24,0.73,0.46
SERINC5 (GeneID 256987),3,0.54 (active),0.58,0.74,0.77,0.91
SERINC5 (GeneID 256987),4,0.7,1.94,2.1,0.2,0.26
CEP120 (GeneID 153241),1,0.34 (active),0.43,0.88,0.07,0.16
CEP120 (GeneID 153241),2,0.44 (active),1.78,2.75,0.2,0.04
CEP120 (GeneID 153241),3,0.54 (active),0.7,0.91,0.27,0.53
CEP120 (GeneID 153241),4,0.54 (active),0.87,1.11,0.24,0.52
ACP2 (GeneID 53),1,0.6,0.82,0.87,0.41,0.56
ACP2 (GeneID 53),2,0.54 (active),2.55,3.11,0.2,0.14
ACP2 (GeneID 53),3,0.57,1.84,2.04,0.16,0.06
ACP2 (GeneID 53),4,0.62,0.79,0.8,0.86,1.18
OSBPL9 (GeneID 114883),1,0.66,1.08,1.18,0.78,0.9
OSBPL9 (GeneID 114883),2,0.48 (active),1.06,1.54,-0.13,0.15
OSBPL9 (GeneID 114883),3,0.62,1.14,1.33,0.86,0.72
OSBPL9 (GeneID 114883),4,1,1.28,0.92,0.13,0.7
LGALS9C (GeneID 654346),1,0.71,1.58,1.36,0.53,0.37
LGALS9C (GeneID 654346),2,0.53 (active),0.89,1.04,0.85,0.78
LGALS9C (GeneID 654346),3,0.86,1.7,1.26,0.56,0.61
LGALS9C (GeneID 654346),4,0.99,3.13,1.99,-0.13,0.15

3 of these entries, set out differently.
Gene	reagent	lactate per cell, drug vs no drug	lactate per cell with vemurafenib	lactate per cell without drug	cell growth with vemurafenib	cell growth without drug
LGALS9C (GeneID 654346)	1	0.71	1.58	1.36	0.53	0.37
LGALS9C (GeneID 654346)	2	0.53 (active)	0.89	1.04	0.85	0.78
LGALS9C (GeneID 654346)	3	0.86	1.7	1.26	0.56	0.61
